# Taken from: PubChem BioAssay AID504764 (Drosophila RNAi Screening Center, 2011)
# Screen: 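Genes whose knock-down alters Notch-dependent transcription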 (primary screen)
# System: Drosophila Kc167 cells
# Knock-down reagent: long dsRNA against Drosophila genes
# Time to read-out: about 5 days (4 days dsRNA, then 24 h after transfection)
# Conditions: transfection of constitutively active membrane-tethered Notch lacking the extracellular domain, read 24 h later
# Detection: 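Firefly luciferase from an E(spl)m3 reporter with active Notch, plus control-promoter and uninduced reporter wells for normalisation; unnormalised counts, duplicate wells a and b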
# Reading the numbers: induced reporter light, run 1, well a and induced reporter light, run 1, well b: higher = more light from the Notch target reporter with active Notch; control promoter light, run 1, well a and control promoter light, run 1, well b: higher = more light from the viral control promoter (cell number, transfection, viability); uninduced reporter light, run 1, well a: higher = more light from the Notch target reporter without active Notch
# Rule for the call: 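Wells with low control signal or poorly matching duplicates excluded; duplicates averaged; per source plate, z beyond ±2 for induced/control log2 ratio or beyond ±1.8 for induced/uninduced marks a hit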
# Calls: active = modifier hit (raised or lowered Notch signal); inactive = not a hit
# The screen tested about 22,000 reagents; below is a random part of those with a known target gene and a result. Of all reagents, 403 (1.9%) were called active. 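Unnormalised raw counts per well; ratio z-scores behind the hit calls and whether each hit raises or lowers signal are not deposited.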 Names joined by + are all predicted targets of the reagent. Reagent sequences are not shown. Not stated in the record: the amount of reagent.
Gene,amplicon,"induced reporter light, run 1, well a","induced reporter light, run 1, well b","control promoter light, run 1, well a","control promoter light, run 1, well b","uninduced reporter light, run 1, well a",outcome
CG18823,DRSC18168,1.15e5,98220,1.69e5,1.50e5,7625,inactive
Atg18b (Autophagy-related 18b),DRSC03108,1.07e5,1.08e5,83935,82890,6650,inactive
RpL7A (Ribosomal protein L7A),DRSC18709,20725,16850,35680,27580,1045,inactive
CG1632,DRSC17558,87110,74525,74045,71685,4990,inactive
CG1632,DRSC18110,1.73e5,1.28e5,2.42e5,3.10e5,12010,inactive
nAChRbeta1 (nicotinic Acetylcholine Receptor beta1),DRSC08097,1.75e5,1.57e5,1.91e5,2.09e5,9332,inactive
nAChRbeta1 (nicotinic Acetylcholine Receptor beta1),DRSC08728,1.98e5,1.44e5,1.48e5,77690,16185,inactive
Set1 (SET domain containing 1),DRSC20930,1.00e5,1.12e5,64405,89510,9395,inactive
Set1 (SET domain containing 1),DRSC20931,87780,92870,80180,83795,9670,inactive
Had2 (beta Hydroxy acid dehydrogenase 2),DRSC05971,1.85e5,1.80e5,1.87e5,1.95e5,14170,inactive
CG4461,DRSC10423,1.15e5,1.06e5,1.47e5,1.26e5,7175,inactive
pav (pavarotti),DRSC08730,95395,90925,1.85e5,1.56e5,7195,inactive
CG14763,DRSC06497,2.22e5,1.93e5,2.76e5,2.29e5,19490,inactive
cyp33 + CG34194,DRSC05666,91660,1.03e5,1.29e5,1.18e5,8755,inactive
CG17580,DRSC06683,82425,84880,1.07e5,1.04e5,8110,inactive
CG15356,DRSC00386,1.29e5,1.08e5,1.20e5,87190,9365,inactive
l(2)k09848 (lethal (2) k09848),DRSC04894,1.36e5,1.40e5,1.27e5,1.54e5,12215,inactive
CG43328,DRSC05640,1.17e5,1.07e5,1.02e5,1.03e5,8670,inactive
CG6006,DRSC13137,1.21e5,1.37e5,1.73e5,1.45e5,10150,inactive
CG6006,DRSC15946,1.70e5,2.02e5,2.49e5,2.55e5,18065,inactive
Ubr1 (Ubr1 ubiquitin ligase),DRSC20148,76495,87110,90390,61420,8310,inactive
Erk7 (Extracellularly regulated kinase 7),DRSC18127,1.14e5,1.16e5,2.04e5,1.66e5,8092,inactive
Erk7 (Extracellularly regulated kinase 7),DRSC18227,1.11e5,1.00e5,2.14e5,1.89e5,7570,inactive
RecQ5 (RecQ5 helicase),DRSC11266,1.61e5,1.65e5,90475,95715,12475,inactive
Cpr65Av (Cuticular protein 65Av),DRSC09727,2.03e5,2.09e5,3.34e5,2.99e5,9760,inactive
slbo (slow border cells),DRSC04716,2.01e5,1.48e5,1.62e5,1.70e5,11655,inactive
Tango9 (Transport and Golgi organization 9),DRSC14173,1.27e5,1.30e5,88690,82010,8710,inactive
Rab40,DRSC19820,59140,66820,67620,78880,4250,inactive
CG15459,DRSC20530,54970,84160,1.12e5,1.18e5,10920,active
CG14929 + CG4970 + CG14930,DRSC02412,1.16e5,1.51e5,67990,96555,17838,inactive
CG6142,DRSC15976,1.36e5,1.39e5,1.77e5,1.77e5,10395,inactive
ple (pale),DRSC11383,1.65e5,1.59e5,1.68e5,1.83e5,10450,inactive
CG11590,DRSC19411,1.02e5,81135,1.02e5,86350,12150,inactive
CG13005,DRSC19524,72370,67225,63805,63395,8155,inactive
